Our source for the binding values is PMC4884944.

Chains of the proteins cited; added tags and fusions are not shown.
UniProt Q05086: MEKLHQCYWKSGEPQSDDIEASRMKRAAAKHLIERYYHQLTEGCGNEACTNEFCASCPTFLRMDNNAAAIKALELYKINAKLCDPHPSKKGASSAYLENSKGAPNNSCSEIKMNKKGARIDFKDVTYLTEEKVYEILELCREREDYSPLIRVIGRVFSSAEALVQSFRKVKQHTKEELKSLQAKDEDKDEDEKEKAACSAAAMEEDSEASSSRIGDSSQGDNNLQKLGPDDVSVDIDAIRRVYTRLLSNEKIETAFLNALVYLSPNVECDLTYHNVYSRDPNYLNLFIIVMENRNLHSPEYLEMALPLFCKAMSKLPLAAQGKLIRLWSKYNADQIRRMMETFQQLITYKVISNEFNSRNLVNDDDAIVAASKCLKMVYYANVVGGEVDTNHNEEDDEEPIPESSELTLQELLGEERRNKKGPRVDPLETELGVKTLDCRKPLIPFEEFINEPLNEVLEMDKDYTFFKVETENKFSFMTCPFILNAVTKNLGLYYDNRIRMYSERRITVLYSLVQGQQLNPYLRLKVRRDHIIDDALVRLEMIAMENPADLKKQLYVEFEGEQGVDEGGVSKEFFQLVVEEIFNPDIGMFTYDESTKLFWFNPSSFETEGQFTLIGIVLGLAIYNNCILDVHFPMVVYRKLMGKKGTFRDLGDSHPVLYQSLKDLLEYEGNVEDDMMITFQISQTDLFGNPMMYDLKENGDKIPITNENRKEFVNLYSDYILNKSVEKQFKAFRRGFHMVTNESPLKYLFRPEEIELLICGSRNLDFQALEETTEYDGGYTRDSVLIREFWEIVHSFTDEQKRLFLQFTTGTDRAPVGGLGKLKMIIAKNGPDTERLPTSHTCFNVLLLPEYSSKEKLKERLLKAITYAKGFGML
UniProt P61244: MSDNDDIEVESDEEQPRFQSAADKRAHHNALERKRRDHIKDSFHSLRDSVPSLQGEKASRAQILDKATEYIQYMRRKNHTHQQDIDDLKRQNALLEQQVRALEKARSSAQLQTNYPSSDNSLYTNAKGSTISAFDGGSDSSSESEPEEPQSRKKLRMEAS

The target of experiment [1] is T1, MAX-binding protein MNT, endogenous in myeloid cells (human (endogenous in HL60 and U937)) (UniProt Q99583).
T1 sequence: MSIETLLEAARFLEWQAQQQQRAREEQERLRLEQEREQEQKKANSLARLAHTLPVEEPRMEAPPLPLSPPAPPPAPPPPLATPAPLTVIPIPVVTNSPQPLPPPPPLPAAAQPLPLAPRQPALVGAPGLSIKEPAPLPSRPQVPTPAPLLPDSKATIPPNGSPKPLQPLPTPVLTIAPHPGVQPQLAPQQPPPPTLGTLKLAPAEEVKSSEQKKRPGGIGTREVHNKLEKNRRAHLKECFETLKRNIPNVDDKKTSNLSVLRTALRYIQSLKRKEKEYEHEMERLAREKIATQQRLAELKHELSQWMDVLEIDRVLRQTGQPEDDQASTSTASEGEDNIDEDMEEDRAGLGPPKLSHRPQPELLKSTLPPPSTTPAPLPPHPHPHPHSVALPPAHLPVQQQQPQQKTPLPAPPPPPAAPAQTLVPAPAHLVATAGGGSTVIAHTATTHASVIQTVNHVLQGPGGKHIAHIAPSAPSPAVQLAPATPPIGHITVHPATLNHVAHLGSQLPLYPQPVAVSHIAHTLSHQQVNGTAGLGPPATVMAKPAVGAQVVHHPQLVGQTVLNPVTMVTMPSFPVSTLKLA
Kind of experiment: co-IP; endogenous proteins in HL60 cells during differentiation induced with 1 uM ATRA; which protein was precipitated is not told.

Experiment [2] has as its target T1, MAX-binding protein MNT, endogenous in myeloid cells (human (endogenous in HL60 and U937)). Kind of experiment: co-IP; MNT antibody; endogenous proteins in HL60 whole cell extracts; cells treated with 1 uM ATRA for 24 h, with or without 10 uM MG132 6 h before harvest; blot with anti-MNT then anti-E6AP.
Experiment [3] addresses GST-tagged E6AP (ubiquitin-protein ligase E6-associated protein) (UniProt Q05086). Kind of experiment: pull-down; GST and GST-E6AP with lysates of 293T cells transfected with 0.5 ug HA-MNT; immunoblot; only the target purified. In general terms: In western blotting, separated proteins are transferred to a membrane and probed.
The target of experiment [4] is E6AP expressed from pcDNA3.1-E6AP (UniProt Q05086). Kind of experiment: co-IP; E6AP antibody; lysates of HEK293T co-transfected with 1.0 ug HA-MNT and 0.5 ug E6AP; blot with anti-E6AP and anti-HA; with or without 10 uM MG132 or 10 uM Lactacystin 6 h before harvest.
The target of experiment [5] is E6AP, endogenous in myeloid cells (human (endogenous in HL60 and U937)) (UniProt Q05086). Briefly: co-IP; E6AP antibody; endogenous proteins in U937 whole cell extracts; cells treated with 5 nM PMA for 24 h, with or without 10 uM MG132 6 h before harvest; blot with E6AP then MNT antibody.

No constants are given. Whether binding was seen depends on the method and setting. Binding seen in cells or lysates may run through a third protein. Some binding calls cover weakened binding; strength is not graded here. For some assays here: Where a sequence is shown, tags or fusion partners need not be part of it.

On to “Protein max, endogenous in HL60 cells (from UniProt P61244 1-160)”, for which the binding result in experiment [1] is listed as “binds”.

In the case of “E6AP, endogenous in myeloid cells (from UniProt Q05086 1-875) (enzyme)”, in experiment [2], the binding entry was “binds”.

B1: HA-MNT (protein, UniProt Q99583 1-582)
chain: MSIETLLEAARFLEWQAQQQQRAREEQERLRLEQEREQEQKKANSLARLAHTLPVEEPRMEAPPLPLSPPAPPPAPPPPLATPAPLTVIPIPVVTNSPQPLPPPPPLPAAAQPLPLAPRQPALVGAPGLSIKEPAPLPSRPQVPTPAPLLPDSKATIPPNGSPKPLQPLPTPVLTIAPHPGVQPQLAPQQPPPPTLGTLKLAPAEEVKSSEQKKRPGGIGTREVHNKLEKNRRAHLKECFETLKRNIPNVDDKKTSNLSVLRTALRYIQSLKRKEKEYEHEMERLAREKIATQQRLAELKHELSQWMDVLEIDRVLRQTGQPEDDQASTSTASEGEDNIDEDMEEDRAGLGPPKLSHRPQPELLKSTLPPPSTTPAPLPPHPHPHPHSVALPPAHLPVQQQQPQQKTPLPAPPPPPAAPAQTLVPAPAHLVATAGGGSTVIAHTATTHASVIQTVNHVLQGPGGKHIAHIAPSAPSPAVQLAPATPPIGHITVHPATLNHVAHLGSQLPLYPQPVAVSHIAHTLSHQQVNGTAGLGPPATVMAKPAVGAQVVHHPQLVGQTVLNPVTMVTMPSFPVSTLKLA
In the case of B1, the binding entry in experiment [3] and in experiment [4] was “binds” each time.

B2: MAX-binding protein MNT, endogenous in myeloid cells (protein, UniProt Q99583 1-582)
chain: MSIETLLEAARFLEWQAQQQQRAREEQERLRLEQEREQEQKKANSLARLAHTLPVEEPRMEAPPLPLSPPAPPPAPPPPLATPAPLTVIPIPVVTNSPQPLPPPPPLPAAAQPLPLAPRQPALVGAPGLSIKEPAPLPSRPQVPTPAPLLPDSKATIPPNGSPKPLQPLPTPVLTIAPHPGVQPQLAPQQPPPPTLGTLKLAPAEEVKSSEQKKRPGGIGTREVHNKLEKNRRAHLKECFETLKRNIPNVDDKKTSNLSVLRTALRYIQSLKRKEKEYEHEMERLAREKIATQQRLAELKHELSQWMDVLEIDRVLRQTGQPEDDQASTSTASEGEDNIDEDMEEDRAGLGPPKLSHRPQPELLKSTLPPPSTTPAPLPPHPHPHPHSVALPPAHLPVQQQQPQQKTPLPAPPPPPAAPAQTLVPAPAHLVATAGGGSTVIAHTATTHASVIQTVNHVLQGPGGKHIAHIAPSAPSPAVQLAPATPPIGHITVHPATLNHVAHLGSQLPLYPQPVAVSHIAHTLSHQQVNGTAGLGPPATVMAKPAVGAQVVHHPQLVGQTVLNPVTMVTMPSFPVSTLKLA
Take B2: the binding result in experiment [5] is given as “binds”.
